No constants are given. Whether binding was seen depends on the method and setting. Some binding calls cover weakened binding; strength is not graded here. For part of these data: Sequences can lack the tags named with a protein.
Legend:
[1] = target: IgG-Fc [IgG part: P01857]; test: phage display selection on immobilized IgG-Fc
[2] = target: IgG-Fc [IgG part: P01857]; test: general note of Table I; synthetic peptide, its number stands in its own row
[3] = target: IgG-Fc [IgG part: P01857]; test: general note of Table I; phage clone, M13/gIII display (listed twice: 734 nM at r33, N/A at r71)

Binder | binding [1] | binding [2] | binding [3]
KEASCSYWLGELVWCVAGVE (N-terminal amine and C-terminal amide) [Fc-II peptide …] | binds | binds | 
KEASCSYWLGELVWCSPGVE [phage clone …] |  |  | binds

From patent US20040253247A1
